Laboratory results as given in US7022297B2, “Method and system for purifying or cleansing a gas stream or gaseous body” (priority 2001, dated 2006).

Experiments:
[1] = Organic contaminants elimination from air in prototype scrubber with biocide spray; details: per 5 hour cycle
[2] = Inorganic contaminants elimination from air in prototype scrubber with biocide spray; details: per 24 hour period

Row | SMILES | PERCENTAGE ELIMINATION [1] | POST-TEST [1] | REDUCTION [1] | Oxygen increase [2]
1 | CC(C)=O [Acetone] | 98.75% | 366 ppm | −2904.6 ppm | 
2 | CCCCCC [Hexane] | 38.3% | 1125 ppm | −700.6 ppm | 
3 | O=O [Oxygen (O2), Oxygen] |  |  |  | 0.5% increase
